Laboratory results published in PubChem BioAssay AID540256 (National Center for Advancing Translational Sciences (NCATS), 2011).
Values joined by “and” are separate entries in the source; they are usually repeats but may differ in a detail not shown here. Equal values may be shown once. About 3,700 (1.2%) of roughly 300,000 compounds were called active. The inconclusive results got no clear call from the source; some entries with a clear call stand among them for comparison. The call rests on the fitted dose curve; tested in HEK293 cells. Where the call is inconclusive, the potency comes from a doubtful curve fit.

assay: qHTS for Inhibitors of binding or entry into cells for Lassa Virus; conditions: Lassa virus pseudotype entry inhibition, cell reporter; series mostly up to 37.9 µM; further: nearly all actives have a fitted effect of over 50% in size
Potency means the concentration at half of the fitted maximal effect.

Row | Structure (SMILES) | Potency
1 | c1csc(-c2nc(NCCCN3CCOCC3)c3ccccc3n2)c1 | inconclusive: 0.631 µM [inhibitor, partial curve, poor fit]
2 | Cc1ccccc1C(=O)O/N=C(\N)c1cccc([N+](=O)[O-])c1 | inconclusive: 29.1 µM [inhibitor, single point]
3 | COc1ccc(CNC(=O)c2ccc(CS(=O)(=O)c3ccc(Br)cc3)o2)cc1 | inconclusive: 10 µM [inhibitor, single point]
4 | CCCCOC(=O)c1ccc(Nc2nc3ccc(C(=O)c4ccccc4)cc3n3cnnc23)cc1 | inconclusive: 5.62 µM [inhibitor, single point]
5 | Cn1c(N)c(C(=O)COC(=O)CC(NC(=O)c2ccccc2Cl)c2ccccc2)c(=O)n(C)c1=O (centres undefined) | inactive
6 | CC(C)N1C(=O)/C(=C/c2nc3ccccc3c(=O)n2-c2ccccc2)c2ccccc21 | active: 10 µM
7 | Cc1ccc(C2=NN(C(=O)CCl)C(c3cccs3)C2)o1 (centres undefined) | inconclusive: 3.16 µM [inhibitor, partial curve, poor fit]
8 | CN1CCN(c2ccc(Cl)cc2NC(=O)c2nn(-c3ccccc3)c(=O)c3ccccc23)CC1 | inconclusive: 1 µM [activator, partial curve, poor fit]
9 | Cc1ccc(Cl)cc1Nc1nn2c(=O)c3ccc(C(=O)NC4CCCCC4)cc3nc2s1 | inconclusive: 3.55 µM [activator, single point]
10 | CCCCCCCNC(=O)CC(NS(=O)(=O)c1ccc(NC(C)=O)cc1)C(C)C (centres undefined) | inconclusive: 16.4 µM [inhibitor, partial curve, poor fit]
11 | CN1CCN2c3ccccc3Cc3ccccc3C2C1 (centres undefined) | inactive and inconclusive: 1.83 µM [activator, single point]
12 | COc1ccc(OC)c(NC(=O)CS(=O)(=O)Cc2nc(-c3ccc(C)cc3)oc2C)c1 | inactive
13 | COC(=O)c1ccc(-n2nnnc2SC)cc1 | inconclusive: 29.1 µM [inhibitor, single point]
14 | COc1ccc(-c2cn3nc(SCC(=O)Nc4cc(C)cc(C)c4)ccc3n2)cc1 | inactive
15 | CCC(=O)c1ccc(OCC(O)CN2CCN(C(c3ccccc3)c3ccccc3)CC2)cc1 (centres undefined) | inconclusive: 16.4 µM [inhibitor, single point]
16 | CCc1cccc(C)c1NC(=O)Cn1ncc2c3ccccc3n(Cc3ccccc3)c2c1=O | inactive
17 | O=C(NC1CCCCCC1)c1ccc(CS(=O)c2cccc(Cl)c2)o1 (centres undefined) | inactive
18 | COc1ccc(CNC(=O)COc2ccc(C)nc2[N+](=O)[O-])cc1 | inconclusive: 12.6 µM [inhibitor, single point]
19 | CC(C=NNc1ccc([N+](=O)[O-])cn1)=Cc1ccccc1 | inconclusive: 2.82 µM [activator, partial curve, poor fit]
20 | COc1ccc(/C=C/C(=O)c2cc3cccc(OC)c3oc2=O)cc1 | inconclusive: 5.62 µM [inhibitor, partial curve, poor fit]
21 | C/C(=N\NC(=O)COc1ccc(C(C)(C)C)cc1)c1ccccc1 | inactive
22 | Cc1cccc(C(=O)N2CCC(=O)N(C(COCc3ccccc3)Cc3ccccc3)CC2)c1 (centres undefined) | active: 5.8 µM

Sorted by count of non-hydrogen atoms (rising): 3 of the compounds above
Row | Structure (SMILES) | Potency
7 | Cc1ccc(C2=NN(C(=O)CCl)C(c3cccs3)C2)o1 (centres undefined) | inconclusive: 3.16 µM [inhibitor, partial curve, poor fit]
2 | Cc1ccccc1C(=O)O/N=C(\N)c1cccc([N+](=O)[O-])c1 | inconclusive: 29.1 µM [inhibitor, single point]
20 | COc1ccc(/C=C/C(=O)c2cc3cccc(OC)c3oc2=O)cc1 | inconclusive: 5.62 µM [inhibitor, partial curve, poor fit]

Carrying on:

Row | Structure (SMILES) | Potency
23 | COc1ccccc1NC(=O)C(=O)Nc1ccccn1 | inconclusive: 16.4 µM [inhibitor, single point]
24 | CC(C)c1ccc(N(CC(=O)NCCCN2CCOCC2)S(=O)(=O)c2ccccc2)cc1 | inconclusive: 28.2 µM [inhibitor, single point]
25 | Cc1ccc(NC(=O)/C=C/C(=O)O)c([N+](=O)[O-])c1 | inconclusive: 1.26 µM [activator, single point]
26 | COCCCNC(=S)N1CCC(C(=O)c2ccc3c(c2)OCCO3)CC1 | inactive
27 | O=C(Sc1ccc(Cl)cc1)c1ccccn1 | inactive
28 | Brc1cc(Br)c2nc(-c3ccc(N4CCOCC4)cc3)ccc2c1 | inconclusive: 35.5 µM [activator, single point]
29 | CC(C)(C)c1nnc(NC(=O)c2ccc3c(c2)OCO3)s1 | inconclusive: 15.8 µM [inhibitor, single point]
30 | CCOC(=O)c1[nH]c(C)c(CCC(=O)Nc2cc(Cl)c(OC)cc2OC)c1C | inactive
31 | CCCCCCc1cc2cc(S(=O)(=O)c3ccc(F)cc3)c(=O)oc2cc1O | inactive
32 | Cc1ccc2c(c1)c(C)c(C)n2CC(O)Cn1nnc2ccccc21 (centres undefined) | inconclusive: 23.1 µM [inhibitor, single point]
33 | COc1ccc(-c2nnn(CC(=O)N(CC(=O)NCCC(C)C)c3ccccc3)n2)cc1OC | inactive
34 | N[C@@H](Cc1ccc(O)c(O)c1)C(=O)O | inconclusive: 25 µM [inhibitor, partial curve, poor fit]
35 | CCc1ccc(NC(=O)Cn2c(=O)n(CCc3ccccc3)c(=O)c3sc4ccccc4c32)cc1 | inactive
36 | CN1C(=O)SC(Nc2ccccc2C(=O)O)C1=O (centres undefined) | inactive
37 | CCC1(CCc2ccncc2)C(=O)NC(=O)NC1=O | inactive
38 | Cc1cc(C(=O)CCl)c(C)n1CCc1ccccc1 | inconclusive: 35.5 µM [inhibitor, single point]
39 | COc1ccc(S(=O)(=O)N(CCc2ccccc2)CC(=O)Nc2cc(C)cc(C)c2)cc1OC | inconclusive: 35.5 µM [inhibitor, single point]
40 | COCCCNC(=S)N1CCN(S(=O)(=O)c2ccc(OC)cc2)CC1 | inconclusive: 3.55 µM [activator, partial curve, poor fit]
41 | COc1ccccc1N1CCN(S(=O)(=O)CCNC(=O)C(c2ccccc2)c2ccccc2)CC1 | inactive
42 | O=C(NC(=S)N1CCOCC1)c1cn(-c2ccccc2)nc1-c1ccc(F)cc1 | inactive
43 | Cc1ccc(C)c2[nH]c(=O)c(CN(CCN3CCCC3)C(=O)Nc3cccc(Cl)c3)cc12 | inconclusive: 0.112 µM [activator, full curve, poor fit]
44 | Cc1cccc(-n2nnc(-c3nc(-c4cccs4)no3)c2N)c1 | inconclusive: 2.82 µM [activator, partial curve, poor fit]
